This data set in a line: Sensory evaluation of photodynamically treated shrimp in 4° C. storage. Set-up: species or system Chinese tube whip shrimp. The note with it: after 10 days of storage at 4° C.; score of 9 indicates significant quality deterioration.

Regarding `COc1cc(/C=C/C=C/C(O)=C/C(=O)/C=C/c2ccc(Br)c(OC)c2)ccc1Br` [Embodiment 1], the “quality deterioration by sensory score” value was “no significant quality deterioration”.

The values are drawn from US20240279149A1 (ZHEJIANG OCEAN UNIVERSITY, priority 2021, published 2024).
